Measured values from article PMC6987225.
Construct, isoform or probe ends are uncertain for at least one entry. At least one verdict rests on a figure or table, not on a statement of the authors.

Target: EngHD (Engrailed homeodomain, DNA-binding domain) (Drosophila melanogaster) (UniProt P02836)
Experiment: FCS
Details: Kd only plotted, between 38 bp and 600 bp trend, ~1 nM Alexa 488-EngHD with unlabeled dsDNA titrated, ionic strength 50 mM (NaCl) unless stated, recombinant protein

“CTCGAGTTCTTAACCAAATTGAATTCTCGCCACCGATCGTGTTCGCCCGAAATAAATCTGGCCGAAAAGCCATCAATCTACAATCTAACTGTGCCTCGGTTTATACCTCCAACTGCCGTTCACCGAAAAGGCCGACAGTTTTCCGACTAATTGTTCTTAACCAAATTGAATTCTCGCCACCGATCGTGTTCGCCCGAAATAAATCTGGCCGAAAAGCCATCAATCTACAATCTAACTGTGCCTCGGTTTATACCTCCAACTGCCGTTCACCGAAAAGGCCGACAGTTTTCCGACAAGCTT (double strand) [300 bp TAATTG]”: binds.
